# The full ranking holds about 33,000 sequences; the median of “E-score (-0.5 to 0.5)” is about -0.016, and the highest 2% start at about 0.3. This is one part of the list.
# Target: T1, Yer184c (UniProt P39961)
# T1 sequence: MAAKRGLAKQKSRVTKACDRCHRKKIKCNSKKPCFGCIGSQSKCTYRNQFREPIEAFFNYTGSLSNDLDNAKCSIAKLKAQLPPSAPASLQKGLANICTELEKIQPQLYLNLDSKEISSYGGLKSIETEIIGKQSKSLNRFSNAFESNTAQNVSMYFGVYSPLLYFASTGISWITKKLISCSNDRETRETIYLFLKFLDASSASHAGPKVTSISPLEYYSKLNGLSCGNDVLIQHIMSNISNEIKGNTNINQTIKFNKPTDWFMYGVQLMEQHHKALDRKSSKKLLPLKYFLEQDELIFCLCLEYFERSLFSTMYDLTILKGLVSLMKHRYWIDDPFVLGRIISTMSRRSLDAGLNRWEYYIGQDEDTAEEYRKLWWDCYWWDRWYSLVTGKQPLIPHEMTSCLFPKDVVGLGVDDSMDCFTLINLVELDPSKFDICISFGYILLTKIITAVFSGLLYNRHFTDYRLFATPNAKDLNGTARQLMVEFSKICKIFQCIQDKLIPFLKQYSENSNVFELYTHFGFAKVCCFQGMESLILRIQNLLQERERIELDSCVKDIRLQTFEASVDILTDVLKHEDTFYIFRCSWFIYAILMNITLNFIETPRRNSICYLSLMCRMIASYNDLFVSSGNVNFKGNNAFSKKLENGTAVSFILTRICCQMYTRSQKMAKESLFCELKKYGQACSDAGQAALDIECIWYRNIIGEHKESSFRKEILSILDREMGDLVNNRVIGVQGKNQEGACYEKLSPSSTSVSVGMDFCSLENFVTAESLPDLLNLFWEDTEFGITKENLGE
# Test: PBM E-score (8-mer binding enrichment) (E-score (-0.5 to 0.5)); higher = stronger / more preferred TF binding
# Conditions: protein concentration: 100 nM; construct: GST-full length
# Procedure, shortened: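 Detection of bound protein used fluorescent anti-GST, with scans normalised by masliner. The proteins were GST-tagged yeast transcription factors applied at about 100-200 nM to universal all-10-mer Agilent arrays made double-stranded by primer extension. Each ungapped eight-base word, pooled with its reverse complement, was scored with an E-score from the Universal PBM Analysis Suite.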
row,Sequence,PBM E-score
1,CAGAAACC,0.0453
2,AGTGTATA,-0.254
3,CAATCTAA,0.0306
4,GAGTTCGC,-0.0587
5,ACTCCAGG,-0.197
6,GCTAGTAA,0.145
7,AGCGAGCT,0.129
8,CGCGTGAG,0.179
9,AGGTTCAC,0.0362
10,AAACTACT,0.0661
11,GACCGGTA,-0.0439
12,CCTAGCCC,-0.227
13,AAAGATGT,-0.0217
14,GAGGAGCC,-0.123
15,CGTTGATC,0.0316
16,CACAGGCA,-0.324
17,AACGGAGA,0.107
18,ATATCGCG,0.185
19,AGGGACAC,0.106
20,GGGGCTTA,-0.239
21,CAGTCTGC,-0.128
22,AGCGACGC,-0.0389
23,AAACACCG,0.164
24,ACGATAGC,-0.0143
25,ACTTTAGA,0.0855

# Single entries from the results shown:
# PBM E-score with CAGAAACC reads 0.0453
# PBM E-score with CGCGTGAG reads 0.179
# PBM E-score with AGCGACGC reads -0.0389
# PBM E-score with ACTCCAGG reads -0.197
# PBM E-score with GCTAGTAA reads 0.145
# PBM E-score with AGCGAGCT reads 0.129

# (cont.)

row,Sequence,PBM E-score
1,ACTTCACG,-0.0539
2,ACGCATTC,-0.00313
3,CACAGATA,-0.0192
4,AATTCCGC,0.208
5,AAAAGCAT,0.15
6,ATGACCAC,-0.0626
7,GTGCGGAA,0.104
8,GATTCAAC,0.12
9,GGACCATA,0.0907
10,AGCTCTAT,-0.122
11,AGGTAAAC,0.222
12,CGTGCAAG,-0.0233
13,GAATCCAC,-0.00579
14,CATATCCG,0.277
15,CAACGTGC,-0.133
16,ATATAGCG,-0.113
17,AGCACCAT,-0.291
18,CTCCGTCC,-0.113
19,GACAGCGA,-0.0681
20,GGATCACC,-0.142
21,CTTAATTC,0.156
22,ATCACCCA,-0.147
23,GGTTATTA,0.132
24,GTACGACA,-0.0496
25,GGAATCCC,-0.0777

row,Sequence,PBM E-score
1,ACCTATTG,-0.16
2,GCGGCTCC,-0.0125
3,AGCACCCG,0.0236
4,CCGTGGCA,0.0867
5,CGCTTAGC,-0.0729
6,ACGAATAT,0.111
7,AGCTCCAG,-0.151
8,CATTTTAA,0.115
9,CCGCGATA,0.0621
10,GCCGGTTA,0.236
11,GCACGAGA,0.0219
12,CACGTGAC,-0.252
13,CAATTAGA,0.0277
14,CTCTTCAC,-0.192
15,CCATCGGC,0.0711
16,AATAATCA,0.124
17,GCTTTTGA,-0.0663
18,CATCATGG,-0.133
19,AAGTTATG,0.0764
20,ATCTACGA,-0.129
21,ACGTGAGT,-0.108
22,GAAGTATC,0.0935
23,ACTGGGAA,-0.0474
24,CAACCAGG,0.0397
25,TACGACCA,-0.14

row,Sequence,PBM E-score
1,AGAGCACA,-0.134
2,ACCTATAT,0.246
3,CCGGTAGA,0.264
4,AATCGCTC,-0.136
5,GATCGTCA,-0.0203
6,GGTTTATA,0.073
7,AAGAGCAG,-0.233
8,ACTCGGAT,0.268
9,AAGCTATG,-0.0842
10,TCGCTCCA,-0.138
11,GCACAACA,-0.135
12,ACCACTGC,-0.268
13,GGTCGCTA,-0.191
14,AGGACGCA,-0.171
15,CCCCGCGG,0.213
16,ACTTGGTG,-0.185
17,ACAGCGTG,-0.0222
18,CCGGTGTC,0.165
19,AGAGAACT,-0.0146
20,CAAGTCGA,-0.0271
21,AGCCCGAA,0.1
22,CGCACGAA,0.134
23,GACTTCAA,-0.212
24,CCAAAGAC,0.0568
25,ATAACCAG,0.136

row,Sequence,PBM E-score
1,ATCGCCAG,-0.127
2,AAGCGTAG,-0.144
3,AATGAGAT,0.127
4,TCCTCCGA,0.0166
5,ATATCAGA,0.239
6,GTAGATAA,0.17
7,CGTGTTTC,0.0466
8,TCGCCGAA,0.316
9,ACACAAGT,-0.0749
10,TAAGTCCA,-0.00497
11,CCAGATGC,-0.103
12,ATTCTCTA,-0.0085
13,GACGCCCC,-0.205
14,CGCAAGAC,-0.012
15,GCGGGATA,0.0399
16,AGGAGACG,-0.26
17,ATACATAA,0.164
18,GCCATATA,0.037
19,CCACACAG,-0.073
20,CTTAAGTA,-0.0115
21,CCAATTCA,-0.067
22,GGTAAATA,0.175
23,ACGGAGGG,-0.0949
24,CCTGTACA,0.13
25,AGTTACCA,0.0704

row,Sequence,PBM E-score
1,CATGTGCA,-0.208
2,AGCATGGC,-0.15
3,GCTAGACC,-0.229
4,CATAGAAA,0.247
5,GTTACGTA,-0.143
6,ATGCAGGA,-0.302
7,AGCGATCC,-0.0185
8,GCTCTGGA,0.0226
9,AGCTCCCT,-0.317
10,CAGGCATG,-0.0502
11,AACGATGT,0.13
12,CAGCGACG,-0.112
13,TCAAGGCA,-0.203
14,GCAATGGC,-0.185
15,CCTCGGAG,0.277
16,AGCCAGAA,-0.0683
17,AGACAGTC,-0.102
18,AACTGAAG,0.061
19,CAATATTC,0.0849
20,ATGCGGGG,-0.188
21,CCAGGAAC,-0.242
22,CTCATTTA,0.134
23,AGGTCCAA,-0.0891
24,CAGGATAA,-0.0581
25,AACGGATT,0.343

row,Sequence,PBM E-score
1,ACCGATAG,-0.0489
2,CCGGACCG,0.353
3,TACAAAGA,0.264
4,AGCAATCC,-0.0121
5,GCTTGAAC,0.234
6,CCGGCGGA,0.369
7,CATCAGAG,-0.0413
8,CTCGGGAC,0.185
9,ACTGGGCG,-0.219
10,ACGGTGCA,-0.0594
11,TACTGTGA,-0.0361
12,ACGTTGTA,-0.0156
13,GGGACACC,-0.231
14,CAAGTGCC,-0.126
15,GGGCTGCA,-0.213
16,ATCGACCC,-0.0134
17,GGCTGTAC,-0.0996
18,AAGGATGG,-0.075
19,GGTAATGA,0.0832
20,CAAATTAG,0.12
21,AAATGTTA,0.0199
22,CGTCCGCC,0.0838
